The other results are listed elsewhere or left out. Most values lie at the level of the controls, where differences are scatter.

Chains of the proteins cited; added tags and fusions are not shown. Lines headed by an entry give the natural chain unless they say otherwise; changes in a name come on top.
UniProt Q01768, whole entry: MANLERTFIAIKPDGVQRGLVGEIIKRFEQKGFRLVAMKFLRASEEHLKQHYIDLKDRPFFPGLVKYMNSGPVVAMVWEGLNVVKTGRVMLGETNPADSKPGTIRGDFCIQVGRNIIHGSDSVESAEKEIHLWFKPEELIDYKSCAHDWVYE
UniProt P70333: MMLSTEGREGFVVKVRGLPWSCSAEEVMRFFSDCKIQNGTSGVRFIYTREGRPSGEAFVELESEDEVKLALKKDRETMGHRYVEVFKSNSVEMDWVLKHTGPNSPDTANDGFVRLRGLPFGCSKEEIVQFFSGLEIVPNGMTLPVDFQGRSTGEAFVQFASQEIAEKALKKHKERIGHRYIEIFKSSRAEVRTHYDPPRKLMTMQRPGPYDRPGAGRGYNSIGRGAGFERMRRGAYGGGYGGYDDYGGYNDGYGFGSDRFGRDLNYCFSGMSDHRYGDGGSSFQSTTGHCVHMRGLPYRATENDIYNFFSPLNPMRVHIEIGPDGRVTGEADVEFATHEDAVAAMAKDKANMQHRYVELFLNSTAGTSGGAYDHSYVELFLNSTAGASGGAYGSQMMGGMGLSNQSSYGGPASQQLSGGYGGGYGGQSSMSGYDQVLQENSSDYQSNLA
UniProt P81269: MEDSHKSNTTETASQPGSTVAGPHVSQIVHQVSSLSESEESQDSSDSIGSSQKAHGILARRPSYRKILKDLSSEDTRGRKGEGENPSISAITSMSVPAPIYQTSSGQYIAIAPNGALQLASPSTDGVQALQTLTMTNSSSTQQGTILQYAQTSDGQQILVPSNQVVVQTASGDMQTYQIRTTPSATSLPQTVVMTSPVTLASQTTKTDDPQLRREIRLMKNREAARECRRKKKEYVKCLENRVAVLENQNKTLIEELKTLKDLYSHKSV
UniProt P70288, whole entry: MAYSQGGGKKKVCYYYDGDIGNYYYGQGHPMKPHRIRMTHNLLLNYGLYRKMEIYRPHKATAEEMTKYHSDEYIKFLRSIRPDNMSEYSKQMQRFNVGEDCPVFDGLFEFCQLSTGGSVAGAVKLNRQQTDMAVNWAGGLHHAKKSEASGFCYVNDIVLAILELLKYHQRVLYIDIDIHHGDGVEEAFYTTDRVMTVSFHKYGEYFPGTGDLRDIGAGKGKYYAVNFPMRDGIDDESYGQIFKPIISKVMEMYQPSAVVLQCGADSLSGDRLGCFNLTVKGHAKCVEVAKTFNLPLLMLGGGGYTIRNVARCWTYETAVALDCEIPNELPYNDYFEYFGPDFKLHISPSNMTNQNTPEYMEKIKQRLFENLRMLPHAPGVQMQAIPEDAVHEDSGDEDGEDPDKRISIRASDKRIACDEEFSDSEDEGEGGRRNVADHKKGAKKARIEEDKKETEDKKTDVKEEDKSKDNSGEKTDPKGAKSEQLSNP
UniProt P67778: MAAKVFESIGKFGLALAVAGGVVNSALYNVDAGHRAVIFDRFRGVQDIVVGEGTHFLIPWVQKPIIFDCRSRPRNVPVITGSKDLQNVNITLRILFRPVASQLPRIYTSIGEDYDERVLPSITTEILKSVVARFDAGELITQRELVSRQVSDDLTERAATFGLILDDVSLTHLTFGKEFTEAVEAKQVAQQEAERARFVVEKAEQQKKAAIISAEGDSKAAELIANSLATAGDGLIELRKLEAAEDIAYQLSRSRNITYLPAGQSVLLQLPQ
UniProt Q02395: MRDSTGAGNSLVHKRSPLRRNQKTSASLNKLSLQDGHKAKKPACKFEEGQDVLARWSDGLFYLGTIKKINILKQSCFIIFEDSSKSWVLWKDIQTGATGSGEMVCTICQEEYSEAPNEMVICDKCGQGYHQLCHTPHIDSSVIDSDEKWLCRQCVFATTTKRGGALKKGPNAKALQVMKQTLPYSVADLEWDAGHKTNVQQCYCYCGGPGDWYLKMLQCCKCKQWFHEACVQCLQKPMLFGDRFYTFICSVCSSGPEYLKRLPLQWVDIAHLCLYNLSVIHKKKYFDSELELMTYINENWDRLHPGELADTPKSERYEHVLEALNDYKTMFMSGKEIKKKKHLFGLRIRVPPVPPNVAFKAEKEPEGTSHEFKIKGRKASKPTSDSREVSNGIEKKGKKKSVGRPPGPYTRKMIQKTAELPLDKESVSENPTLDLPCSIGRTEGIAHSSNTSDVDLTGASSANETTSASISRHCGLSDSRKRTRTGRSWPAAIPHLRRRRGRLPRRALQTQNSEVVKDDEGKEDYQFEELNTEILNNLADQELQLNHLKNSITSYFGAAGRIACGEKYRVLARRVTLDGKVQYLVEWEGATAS
UniProt Q02111: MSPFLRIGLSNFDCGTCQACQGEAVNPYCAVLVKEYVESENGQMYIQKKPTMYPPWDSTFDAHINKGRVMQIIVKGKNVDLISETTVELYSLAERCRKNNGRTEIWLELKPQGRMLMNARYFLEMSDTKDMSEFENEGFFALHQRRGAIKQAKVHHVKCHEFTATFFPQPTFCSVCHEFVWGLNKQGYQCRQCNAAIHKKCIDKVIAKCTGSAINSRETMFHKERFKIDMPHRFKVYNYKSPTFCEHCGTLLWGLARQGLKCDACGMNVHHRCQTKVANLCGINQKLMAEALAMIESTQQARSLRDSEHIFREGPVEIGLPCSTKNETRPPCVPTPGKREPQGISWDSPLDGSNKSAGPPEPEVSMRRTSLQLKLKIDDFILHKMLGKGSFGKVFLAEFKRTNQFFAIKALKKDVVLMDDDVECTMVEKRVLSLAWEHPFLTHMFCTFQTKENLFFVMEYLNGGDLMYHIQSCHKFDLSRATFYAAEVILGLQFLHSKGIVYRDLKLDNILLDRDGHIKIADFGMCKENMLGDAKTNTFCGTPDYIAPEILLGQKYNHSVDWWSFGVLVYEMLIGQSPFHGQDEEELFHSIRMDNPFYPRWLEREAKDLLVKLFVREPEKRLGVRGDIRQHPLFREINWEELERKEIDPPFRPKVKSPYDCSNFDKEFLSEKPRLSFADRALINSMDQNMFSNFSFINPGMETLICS
UniProt P80314: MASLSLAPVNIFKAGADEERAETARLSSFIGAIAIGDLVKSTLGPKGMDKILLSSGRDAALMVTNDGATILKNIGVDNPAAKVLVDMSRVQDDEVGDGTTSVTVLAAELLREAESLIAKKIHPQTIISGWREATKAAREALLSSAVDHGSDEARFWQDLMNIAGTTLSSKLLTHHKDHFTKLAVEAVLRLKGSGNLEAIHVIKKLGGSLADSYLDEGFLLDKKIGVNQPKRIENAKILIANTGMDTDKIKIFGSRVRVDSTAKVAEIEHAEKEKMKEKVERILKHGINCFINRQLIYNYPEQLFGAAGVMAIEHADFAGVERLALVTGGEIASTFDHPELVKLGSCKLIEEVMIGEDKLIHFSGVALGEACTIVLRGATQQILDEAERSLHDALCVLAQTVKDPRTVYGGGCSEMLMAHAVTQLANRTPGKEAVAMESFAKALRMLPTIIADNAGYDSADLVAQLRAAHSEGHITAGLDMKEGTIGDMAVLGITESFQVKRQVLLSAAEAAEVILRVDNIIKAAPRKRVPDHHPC
UniProt Q01320: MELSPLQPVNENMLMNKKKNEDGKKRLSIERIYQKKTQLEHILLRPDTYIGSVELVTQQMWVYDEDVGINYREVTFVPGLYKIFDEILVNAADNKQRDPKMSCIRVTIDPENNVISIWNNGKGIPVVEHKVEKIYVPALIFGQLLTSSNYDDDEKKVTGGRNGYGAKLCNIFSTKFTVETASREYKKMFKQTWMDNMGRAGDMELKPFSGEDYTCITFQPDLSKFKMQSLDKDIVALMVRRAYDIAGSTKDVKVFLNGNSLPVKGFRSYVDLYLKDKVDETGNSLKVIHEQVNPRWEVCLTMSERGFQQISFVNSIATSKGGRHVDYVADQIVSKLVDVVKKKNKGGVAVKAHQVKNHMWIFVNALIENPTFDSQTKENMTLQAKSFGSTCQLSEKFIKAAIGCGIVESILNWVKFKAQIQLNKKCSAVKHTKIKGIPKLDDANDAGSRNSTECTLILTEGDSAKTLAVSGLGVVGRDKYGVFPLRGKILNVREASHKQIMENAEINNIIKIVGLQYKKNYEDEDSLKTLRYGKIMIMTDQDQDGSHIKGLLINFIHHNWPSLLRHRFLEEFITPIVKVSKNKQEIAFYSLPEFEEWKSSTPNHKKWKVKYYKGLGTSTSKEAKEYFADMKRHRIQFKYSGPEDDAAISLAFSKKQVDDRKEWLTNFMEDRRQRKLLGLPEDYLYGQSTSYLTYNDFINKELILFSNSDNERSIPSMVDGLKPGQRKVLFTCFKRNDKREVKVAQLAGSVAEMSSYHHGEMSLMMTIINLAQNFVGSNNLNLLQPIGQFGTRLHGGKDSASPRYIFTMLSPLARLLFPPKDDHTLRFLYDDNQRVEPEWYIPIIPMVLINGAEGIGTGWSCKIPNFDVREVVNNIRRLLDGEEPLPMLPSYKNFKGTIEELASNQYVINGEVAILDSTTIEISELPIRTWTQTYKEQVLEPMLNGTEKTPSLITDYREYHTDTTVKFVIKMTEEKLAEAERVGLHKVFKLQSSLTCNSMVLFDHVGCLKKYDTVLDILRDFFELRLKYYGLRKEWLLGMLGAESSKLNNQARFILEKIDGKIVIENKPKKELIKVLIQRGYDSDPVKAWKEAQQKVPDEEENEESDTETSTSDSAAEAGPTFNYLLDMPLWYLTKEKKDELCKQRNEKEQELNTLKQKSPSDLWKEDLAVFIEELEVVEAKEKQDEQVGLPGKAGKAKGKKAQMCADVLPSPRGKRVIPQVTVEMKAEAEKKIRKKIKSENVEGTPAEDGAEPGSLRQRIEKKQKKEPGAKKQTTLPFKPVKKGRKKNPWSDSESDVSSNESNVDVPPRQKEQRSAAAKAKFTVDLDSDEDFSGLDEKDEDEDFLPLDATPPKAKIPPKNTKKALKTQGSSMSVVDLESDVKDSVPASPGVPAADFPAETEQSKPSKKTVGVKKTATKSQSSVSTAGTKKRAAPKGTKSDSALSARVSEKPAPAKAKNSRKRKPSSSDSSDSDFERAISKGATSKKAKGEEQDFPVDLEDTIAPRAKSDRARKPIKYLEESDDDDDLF
UniProt P70362: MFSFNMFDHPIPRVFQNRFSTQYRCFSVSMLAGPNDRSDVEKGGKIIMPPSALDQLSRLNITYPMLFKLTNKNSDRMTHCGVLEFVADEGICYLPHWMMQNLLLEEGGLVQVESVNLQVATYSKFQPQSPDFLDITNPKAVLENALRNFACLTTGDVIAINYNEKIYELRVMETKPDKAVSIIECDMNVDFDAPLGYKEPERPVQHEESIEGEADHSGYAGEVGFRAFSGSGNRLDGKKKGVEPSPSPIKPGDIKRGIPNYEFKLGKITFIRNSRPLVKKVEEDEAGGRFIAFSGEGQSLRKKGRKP
UniProt Q01063: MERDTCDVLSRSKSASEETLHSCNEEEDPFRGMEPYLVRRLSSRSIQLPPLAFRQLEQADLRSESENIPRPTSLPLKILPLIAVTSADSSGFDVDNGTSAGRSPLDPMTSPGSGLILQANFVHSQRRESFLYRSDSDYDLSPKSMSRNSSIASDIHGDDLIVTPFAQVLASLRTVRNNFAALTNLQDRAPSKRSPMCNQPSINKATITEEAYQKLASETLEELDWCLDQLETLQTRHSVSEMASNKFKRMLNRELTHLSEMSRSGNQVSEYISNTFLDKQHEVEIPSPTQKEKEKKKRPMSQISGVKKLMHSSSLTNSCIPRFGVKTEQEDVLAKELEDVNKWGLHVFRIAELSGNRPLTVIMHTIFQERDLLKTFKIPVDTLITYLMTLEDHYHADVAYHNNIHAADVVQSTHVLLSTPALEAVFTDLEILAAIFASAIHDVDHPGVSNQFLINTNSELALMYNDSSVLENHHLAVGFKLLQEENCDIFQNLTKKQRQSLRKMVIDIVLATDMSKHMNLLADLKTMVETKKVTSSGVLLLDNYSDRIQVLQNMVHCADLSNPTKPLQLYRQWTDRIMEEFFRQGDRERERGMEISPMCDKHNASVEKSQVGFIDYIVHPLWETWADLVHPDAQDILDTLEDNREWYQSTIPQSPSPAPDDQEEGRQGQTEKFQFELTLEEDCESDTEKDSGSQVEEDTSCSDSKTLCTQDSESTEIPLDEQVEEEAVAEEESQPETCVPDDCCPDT

Compound in this assay: CN[C@@H]1C[C@H]2O[C@@](C)([C@@H]1OC)n1c3ccccc3c3c4c(c5c6ccccc6n2c5c31)C(=O)NC4 [staurosporine]
Put plainly: log2 fold change of tryptic peptide abundance, ligand vs vehicle (limited proteolysis) (log2 ratio); higher = more trypsin-susceptible (destabilized). Conditions: ligand concentration: 20 uM; sample: mouse liver crude lysate; replicate design: treated separately.
Turning to “UniProt Q01768 (peptide sequence: EIHLWFKPEELIDYK, peptide start residue: 129)”, the log2 fold change stood at 0.335.

Regarding “UniProt P70333 (peptide sequence: KLMTMQR, peptide start residue: 200)”, the log2 fold change is -0.313.

Take “UniProt P81269 (peptide sequence: VAVLENQNK, peptide start residue: 301)”: the log2 fold change is -0.11. Under “UniProt P70288 (peptide sequence: IEEDKKETEDK, peptide start residue: 447)” stands 0.0229; under “UniProt P67778 (peptide sequence: AAIISAEGDSK, peptide start residue: 209)”, -0.264.

For “UniProt Q02395 (peptide sequence: SWPAAIPHLR, peptide start residue: 488)”, the log2 fold change is 0.432. Turning to “UniProt Q02111 (peptide sequence: SAGPPEPEVSMR, peptide start residue: 356)”, the log2 fold change is 0.247. Turning to “UniProt P80314 (peptide sequence: KIHPQTIISGWR, peptide start residue: 120)”, the log2 fold change was -0.382. “UniProt Q01320 (peptide sequence: LCNIFSTK, peptide start residue: 178)”: the log2 fold change is -0.143.

Consider “UniProt P70362 (peptide sequence: FIAFSGEGQSLRK, peptide start residue: 290)”, for which the log2 fold change is -0.132. For the target “UniProt Q01063 (peptide sequence: SPMCNQPSINK, peptide start residue: 194)”, the log2 fold change was -0.482.

(Values after the supplement of paper PMC12819154, “High-throughput peptide-centric local stability assay extends protein–ligand identification to membrane proteins, tissues and bacteria” (Nature Structural & Molecular Biology, 2025).)
